# PubChem BioAssay AID1347426 (Functional Genomics Laboratory (NCATS/FGL), 2020)
# About 1,400 (4.5%) of roughly 31,000 sequences were called active.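 How the source made its calls: active means median seed-adjusted z-score above 1 or below -1; inactive means the rest.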 The list shows a part of the results.
# Assay: Novel Modifiers of Survival Motor Neuron (SMN) Protein: Gene Identification via Genome-wide siRNA Screen;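 further: luminescence tracks full-length SMN protein made from the SMN2 reporter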
# Conditions: HEK293T SMN2-luciferase reporter, siRNA knockdown, 72 h; actives lie on both sides
# How it was run: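 Steps: spot 1 pmol siRNA, add Lipofectamine RNAiMax in serum-free DMEM, seed HEK293T SMN2–luciferase reporter cells; incubate 72 h at 37 °C; add ONE-Glo; normalize luminescence to control siRNA, log10, MAD. Candidates: |MAD| > 1.0.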
row,Sequence,median seed-adjusted z-score
1,CCUACAGCAGUGUCUAUGATT against EIF3C,inactive: 0.56
2,CCACGACCAGCUUAAAGAATT against OAZ3,inactive: 0.046
3,CGUCAGCUAUGUAAUGUUUTT against SLC22A7,inactive: -0.387
4,CGACGAACAUUUGAAGAUATT against GSS,inactive: 0.122
5,GCGGAUUCCUCUGUCCCAATT against SPINT2,inactive: 0.00974
6,CACCAGGUCUGGAUAUUGATT against SF3A1,active: -1.09
7,GAACUACGGGAAGUAUGAATT against TTL,inactive: -0.174
8,CAGUGACUGUCGGUACAUATT against TYRO3,inactive: -0.0161
9,AGACCUUUGUGGAUGCAGATT against CTSE,inactive: -0.1
10,GACACUUUACCAAAUCCUATT against OSR2,inactive: 0.603
11,CAUCCACAACGGCGAGAAGTT against GLI4,inactive: 0.0798
12,CCGACUACUCCAACGAGAATT against MASP2,inactive: -0.137
13,CCCAUUAACCUCCUCCCAATT against SPI1,inactive: 0.384
14,ACAUAGACUUUGUACUACATT against ABHD1,inactive: 0.336
15,GCUUGAAAGGGACGAGUUATT against SLC4A1AP,inactive: -0.0117
16,GCUACACCUCAGUUCAUCATT against CLOCK,inactive: -0.338
17,CGACAAGAAUACAACGAUATT against KEL,inactive: 0
18,UCAAGAAAAUGAACCGAGATT against HOXC10,inactive: 0.000966
19,CAGCGAUUUUAAAUCGUAUTT against HSD17B13,inactive: -0.329
20,GGCUCAACUUUAACACCGATT against RBM3,inactive: 0.0539
21,GCCUCACCUUUGUAGUAUUTT against ZBTB41,inactive: 0.173
22,GGAUCGUGGUCUUUCCAAATT against FNTA,active: 1.04
23,GCUAAUGGAUCAGAACGUATT against NEIL3,inactive: 0.0736
24,GAUGAACUGAAGCUAUUGATT against S100G,inactive: -0.809
25,CAAGUGGAGUAACACCAAATT against VIL1,inactive: 0.368
26,CAACUUCGGCUUUGAAGAATT against ATP4B,inactive: -0.609
27,CUUCAAUCCUGGUCCAACUTT against NAT6,inactive: -0.327

# A second format for part of the listing above:
row	Sequence	median seed-adjusted z-score
3	CGUCAGCUAUGUAAUGUUUTT against SLC22A7	inactive: -0.387
4	CGACGAACAUUUGAAGAUATT against GSS	inactive: 0.122
5	GCGGAUUCCUCUGUCCCAATT against SPINT2	inactive: 0.00974
6	CACCAGGUCUGGAUAUUGATT against SF3A1	active: -1.09
7	GAACUACGGGAAGUAUGAATT against TTL	inactive: -0.174
8	CAGUGACUGUCGGUACAUATT against TYRO3	inactive: -0.0161
9	AGACCUUUGUGGAUGCAGATT against CTSE	inactive: -0.1
10	GACACUUUACCAAAUCCUATT against OSR2	inactive: 0.603
11	CAUCCACAACGGCGAGAAGTT against GLI4	inactive: 0.0798
12	CCGACUACUCCAACGAGAATT against MASP2	inactive: -0.137
13	CCCAUUAACCUCCUCCCAATT against SPI1	inactive: 0.384
14	ACAUAGACUUUGUACUACATT against ABHD1	inactive: 0.336
15	GCUUGAAAGGGACGAGUUATT against SLC4A1AP	inactive: -0.0117
16	GCUACACCUCAGUUCAUCATT against CLOCK	inactive: -0.338

# Next results

row,Sequence,median seed-adjusted z-score
1,CCAACUCAUUGAUAGGGAUTT against PRPH2,inactive: 0.0931
2,AAGAGAAAGUUCACGAGUATT against LRPAP1,inactive: -0.0616
3,CAUGCAGAUUUGUAUGUUATT against AGPAT4,inactive: 0.149
4,GGAAUAUUCUGCUAUAGGATT against PVRL3,inactive: -0.0385
5,GCAACGUCGACUACAAAAATT against MYLPF,inactive: 0.348
6,ACCUGGUUCUUGCAAAAGATT against CBX5,inactive: 0.404
7,UGACAUGCAUGACUUCUUUTT against TAC3,inactive: -0.00265
8,AGAUGUUCUUAAGACCAAATT against PACSIN2,inactive: 0.73
9,CCUGGAUUCUCAUGCUCUATT against HHAT,inactive: 0.585
10,CGGUCGAACCAAACCCAUUTT against SRP14,inactive: 0.0824
11,AGCUGACCUUCUGUAGGAATT against NUBP2,inactive: -0.21
12,GAAUGAUAGUCAUACUCCUTT against USP16,inactive: -0.173
13,ACGCCUACCUGUUUUCCCATT against CEL,inactive: 0
14,UGACGCUUAUGAACCUCUATT against GPR137,inactive: 0.564
15,AGAGGUACCAGAGACUCUATT against AMZ1,inactive: 0.205
16,GCUCUAACCUUGUUGUUCATT against ZNF660,inactive: 0.251
17,GCAGCCGCAUAAGAAGUCATT against ATP6V1C2,inactive: 0.2
18,GGAUUUUCUACGUACGGUATT against TARS,inactive: 0.146
19,GGACUCUCGCUGUCCACAATT against OSR1,inactive: -0.185
20,CCAUCACCCGUGAAGAGAATT against CRYAB,inactive: 0.354
21,CCUUGGAUUUUUAUCAUUUTT against PTGDR,inactive: -0.158
22,CGCUAUGGAUUCCAACUAUTT against MYOT,inactive: 0.091
23,CAACCUAUGUGGCAGCCAUTT against ABHD11,inactive: -0.189
24,GUGCUUACCUUAUUGAACATT against ZFP2,inactive: 0
25,GGACAUUGCUGAUCGCUUUTT against DMC1,inactive: -0.00876
26,CAUUCAUAGUAGAAAGAGATT against ACAD9,inactive: -0.384
27,GAAUCAAGAAUUAAAGACATT against PIPOX,active: 1.06
